Where a SMILES comes first, the peptide text is derived from it. [ ]: non-standard residue; d: D form. pGlu = O=C1CC[C@@H](C(=O)O)N1; Nle = CCCC[C@H](N)C(=O)O; Nva = CCC[C@H](N)C(=O)O; Abu = CC[C@H](N)C(=O)O
Tested on: Haloperidol-induced catalepsy
Assay: Inhibition of Haloperidol-induced catalepsy on rats
Format: in vivo, male Wistar rats
Conditions: time after i.v. treatment that the ED50 belongs to (checked at 15, 30, 60, 90, 120 min)
Protocol: (1) Inhibition of Haloperidol-induced catalepsy on rats (see J. Delay and P. Deniker: Compt. Rend. Congr. Med. Alenistes Neurologistes, 19, 497, Luxembourg, 1952)
The tests were performed on male Wistar rats weighing 160 to 180 g.
40 mg/kg of 4-(p-chlorophenyl)-1-(3-/p-fluorobenzoyl/propyl)-piperidin-4-ol(Haloperidol) were administered subcutaneously into the animals, and 120 minutes after this treatment the animals were checked for the appearance of catalepsy. The rats were divided into groups of 10 animals each, and treated intravenously with TRH or the new TRH analogues. The animals belonging to the control group received physiological saline. The catalepsy-suspending effects of the individual compounds were determined 15, 30, 60, 90 and 120 minutes after the treatment. The animals that had not changed their position for 30 seconds after placing their fore-paw onto a 7 cm high column were regarded as cataleptic.

| Compound | Inhibition of Haloperidol catalepsy, time |
| --- | --- |
| NC(=O)[C@@H]1CCCCN1C(=O)[C@H](Cc1c[nH]cn1)NC(=O)[C@@H]1CCC(=O)N1 [His HPro H, L-Pyroglutamyl-L-histidyl-L-homoprolinamide] | 120 min |
| CCCC[C@H](NC(=O)[C@@H]1CCC(=O)N1)C(=O)N1CCC[C@H]1C(N)=O [Nleu Pro H, L-Pyroglutamyl-L-norleucyl-L-prolinamide] ([pGlu]-[Nle]-Pro-NH2) | 120 min |
| CC[C@H](NC(=O)[C@@H]1CCC(=O)N1)C(=O)N1CCC[C@H]1C(N)=O [Abu Pro H, L-Pyroglutamyl-L-α-aminobutyl-L-prolinamide] ([pGlu]-[Abu]-Pro-NH2) | 15 min |
| CCC[C@H](NC(=O)[C@@H]1CCC(=O)N1)C(=O)N1CCC[C@H]1C(N)=O [Nva Pro H, L-Pyroglutamyl-L-norvalyl-L-prolinamide] ([pGlu]-[Nva]-Pro-NH2) | 120 min |
| NC(=O)[C@@H]1CCCN1C(=O)[C@H](Cc1c[nH]cn1)NC(=O)[C@@H]1CCC(=O)N1 [TRH, L-pyroglutamyl-L-histidyl-L-prolinamide, reference compound] | 15 min |
| CCNC(=O)[C@@H]1CCCN1C(=O)[C@H](CC(C)C)NC(=O)[C@@H]1CCC(=O)N1 [Leu Pro Et, L-Pyroglutamyl-L-leucyl-L-proline ethylamide] ([pGlu]-Leu-Pro-NHEt) | 30 min |
